This note sets out measurements from patent US10821110B2, “Composite preparation, containing novel 3-(4--(benzyloxy)phenyl)hex-4-inoic acid derivative and another active ingredient, for preventing or treating metabolic diseases” (HYUNDAI PHARM CO., LTD., priority 2014, dated 2020).

The chains behind the UniProt entries cited, without tags or fusion partners.
UniProt P05177, whole entry: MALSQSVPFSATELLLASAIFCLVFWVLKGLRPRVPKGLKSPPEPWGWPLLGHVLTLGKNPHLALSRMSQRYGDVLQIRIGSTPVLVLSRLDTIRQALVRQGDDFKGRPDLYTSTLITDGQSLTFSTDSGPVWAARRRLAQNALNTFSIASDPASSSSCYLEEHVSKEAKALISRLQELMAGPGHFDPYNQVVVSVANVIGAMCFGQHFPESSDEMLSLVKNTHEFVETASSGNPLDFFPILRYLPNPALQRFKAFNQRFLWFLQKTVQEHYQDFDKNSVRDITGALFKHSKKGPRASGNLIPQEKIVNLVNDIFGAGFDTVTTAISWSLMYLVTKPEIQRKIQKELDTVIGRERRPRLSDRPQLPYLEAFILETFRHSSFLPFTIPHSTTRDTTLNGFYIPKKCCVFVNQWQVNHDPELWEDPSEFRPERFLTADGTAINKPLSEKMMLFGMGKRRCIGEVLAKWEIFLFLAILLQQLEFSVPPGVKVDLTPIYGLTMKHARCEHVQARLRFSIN
UniProt P08684, whole entry: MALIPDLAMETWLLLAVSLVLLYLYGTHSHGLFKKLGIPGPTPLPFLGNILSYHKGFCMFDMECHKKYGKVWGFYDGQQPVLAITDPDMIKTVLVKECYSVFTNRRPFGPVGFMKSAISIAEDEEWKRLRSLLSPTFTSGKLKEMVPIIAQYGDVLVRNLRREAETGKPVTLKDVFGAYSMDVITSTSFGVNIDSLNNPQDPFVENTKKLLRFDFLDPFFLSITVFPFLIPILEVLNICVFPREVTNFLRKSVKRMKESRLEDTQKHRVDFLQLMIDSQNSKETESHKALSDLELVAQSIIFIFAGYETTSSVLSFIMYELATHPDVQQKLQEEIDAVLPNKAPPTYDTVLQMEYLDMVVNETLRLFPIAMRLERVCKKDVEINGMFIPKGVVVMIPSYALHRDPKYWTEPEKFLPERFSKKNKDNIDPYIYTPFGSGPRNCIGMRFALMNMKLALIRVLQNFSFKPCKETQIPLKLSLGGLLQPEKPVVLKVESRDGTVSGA

The match of structure and compound is tentative.

Data set [1] addresses CYP1A2 (Homo sapiens, UniProt P05177). As to the kind of experiment: CYP inhibition (BD GENTEST kit). Format: in vitro ADME. The settings on record: 10 μM.
Data set [2] deals with CYP3A4 (Homo sapiens, UniProt P08684). As to the kind of experiment: CYP inhibition (BD GENTEST kit). The settings on record: 10 μM.
The subject of data set [3] is Male Sprague Dawley rats. As to the kind of experiment: Oral glucose tolerance test (OGTT) 1. The settings on record: SD rats; 10 mg/kg oral; glucose 4 g/kg 30 minutes after.
Data set [4] relates to Male Goto-Kakizaki (GK) rats, non-obese type II diabetic models. As to the kind of experiment: Oral glucose tolerance test (OGTT) 2.
The subject of data set [5] is Male Otsuka Long-Evans Tokushima fatty (OLETF) rats, obese type II diabetic models. As to the kind of experiment: Oral glucose tolerance test (OGTT) 3.

As for `Cc1cc(OCCCS(C)(=O)=O)cc(C)c1-c1cccc(COc2ccc3c(c2)OC[C@H]3CC(=O)O)c1`, the “CYP Inhibition (%) 1A2” value in data set [1] turned out to be 0.8%. In data set [2], the “CYP Inhibition (%) 3A4” value was 10.0%. For the same compound, the “% AUC (reduction (%) of blood glucose AUC)” value in data set [3] is given as 16.2%; in data set [4] (Dose 10 mg/kg) it was “B (25.0-35.0%)”; in data set [5] (Dose 10 mg/kg), “B (25.0-35.0%)”. Further, the “blood glucose lowering effect” value in data set [4] (10 mg/kg, values in text) stood at 25.3%; in data set [5] (10 mg/kg, values in text) it was 31.6%.
